The values below come from the supplement of paper PMC10849652.

Protein sequences, listed by entry. Tags and fused reporters are not part of them. Lines headed by an entry give the natural chain unless they say otherwise; changes in a name come on top.
UniProt P57768: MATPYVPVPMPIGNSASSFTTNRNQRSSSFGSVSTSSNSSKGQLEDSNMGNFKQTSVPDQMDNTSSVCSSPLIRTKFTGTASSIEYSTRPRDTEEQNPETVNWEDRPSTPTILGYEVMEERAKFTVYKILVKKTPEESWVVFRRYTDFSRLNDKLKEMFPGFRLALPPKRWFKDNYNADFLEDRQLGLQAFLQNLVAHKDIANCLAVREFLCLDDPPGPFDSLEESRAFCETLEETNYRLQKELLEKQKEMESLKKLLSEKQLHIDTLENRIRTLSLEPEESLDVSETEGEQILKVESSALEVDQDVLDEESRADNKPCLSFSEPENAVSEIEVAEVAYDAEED
UniProt P62308, whole entry, looked up: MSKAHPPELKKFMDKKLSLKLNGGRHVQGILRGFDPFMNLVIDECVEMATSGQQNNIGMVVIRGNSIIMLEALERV
UniProt Q16637, whole entry, looked up: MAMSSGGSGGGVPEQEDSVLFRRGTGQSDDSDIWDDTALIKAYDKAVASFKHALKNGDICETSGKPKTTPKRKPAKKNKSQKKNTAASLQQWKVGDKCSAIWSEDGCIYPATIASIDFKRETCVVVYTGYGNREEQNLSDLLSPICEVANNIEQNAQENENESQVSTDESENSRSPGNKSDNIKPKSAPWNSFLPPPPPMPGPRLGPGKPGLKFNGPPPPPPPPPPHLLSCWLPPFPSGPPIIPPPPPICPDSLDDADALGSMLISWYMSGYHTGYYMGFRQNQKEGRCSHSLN
UniProt P62316, whole entry, looked up: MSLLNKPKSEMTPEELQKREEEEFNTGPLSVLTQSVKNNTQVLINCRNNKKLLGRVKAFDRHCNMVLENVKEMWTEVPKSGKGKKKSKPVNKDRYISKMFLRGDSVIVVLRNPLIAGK
UniProt Q96H20: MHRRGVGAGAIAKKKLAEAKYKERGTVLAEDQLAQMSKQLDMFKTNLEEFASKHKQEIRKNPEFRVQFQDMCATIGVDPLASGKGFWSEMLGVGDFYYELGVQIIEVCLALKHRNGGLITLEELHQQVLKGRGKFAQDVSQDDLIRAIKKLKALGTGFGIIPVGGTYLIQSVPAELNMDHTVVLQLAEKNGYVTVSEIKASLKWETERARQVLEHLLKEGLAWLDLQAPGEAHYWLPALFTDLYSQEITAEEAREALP
UniProt P09661: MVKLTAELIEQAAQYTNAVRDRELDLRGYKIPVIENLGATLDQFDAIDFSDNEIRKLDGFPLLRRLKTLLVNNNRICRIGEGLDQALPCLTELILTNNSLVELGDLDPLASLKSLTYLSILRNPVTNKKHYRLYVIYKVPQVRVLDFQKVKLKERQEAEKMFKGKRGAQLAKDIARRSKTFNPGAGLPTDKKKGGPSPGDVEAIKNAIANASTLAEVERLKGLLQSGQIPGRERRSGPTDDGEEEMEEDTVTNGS
UniProt Q9Y5X2: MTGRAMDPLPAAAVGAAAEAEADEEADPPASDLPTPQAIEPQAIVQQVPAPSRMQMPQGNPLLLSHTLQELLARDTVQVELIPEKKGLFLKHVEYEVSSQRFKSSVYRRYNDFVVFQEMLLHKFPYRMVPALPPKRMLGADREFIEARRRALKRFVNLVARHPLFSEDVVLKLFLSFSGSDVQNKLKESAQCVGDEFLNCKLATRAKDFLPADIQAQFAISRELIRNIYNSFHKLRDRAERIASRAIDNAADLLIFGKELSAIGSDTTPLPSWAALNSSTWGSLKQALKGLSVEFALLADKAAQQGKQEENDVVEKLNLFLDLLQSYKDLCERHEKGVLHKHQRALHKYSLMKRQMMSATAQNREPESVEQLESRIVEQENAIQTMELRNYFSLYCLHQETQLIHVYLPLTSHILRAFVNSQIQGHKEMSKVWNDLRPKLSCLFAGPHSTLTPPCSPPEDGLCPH
UniProt P04179: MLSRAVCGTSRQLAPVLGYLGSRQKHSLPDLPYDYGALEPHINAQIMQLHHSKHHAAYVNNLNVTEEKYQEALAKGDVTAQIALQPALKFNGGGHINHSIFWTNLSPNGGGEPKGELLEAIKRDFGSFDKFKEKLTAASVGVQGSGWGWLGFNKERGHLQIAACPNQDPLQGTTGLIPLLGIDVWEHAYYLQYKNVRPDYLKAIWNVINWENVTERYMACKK
UniProt O00161: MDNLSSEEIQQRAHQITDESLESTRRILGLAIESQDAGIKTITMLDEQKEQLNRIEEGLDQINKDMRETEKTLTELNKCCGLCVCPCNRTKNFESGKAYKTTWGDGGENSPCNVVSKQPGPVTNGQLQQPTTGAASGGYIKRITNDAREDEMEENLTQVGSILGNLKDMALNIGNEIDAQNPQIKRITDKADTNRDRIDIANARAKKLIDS
UniProt O95721: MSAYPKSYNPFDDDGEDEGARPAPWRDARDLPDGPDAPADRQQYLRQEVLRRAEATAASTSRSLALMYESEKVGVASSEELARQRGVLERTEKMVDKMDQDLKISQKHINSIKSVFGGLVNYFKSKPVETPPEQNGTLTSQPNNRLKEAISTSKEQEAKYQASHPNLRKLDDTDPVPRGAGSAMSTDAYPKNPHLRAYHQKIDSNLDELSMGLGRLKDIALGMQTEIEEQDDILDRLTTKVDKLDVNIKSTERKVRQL
UniProt Q8IYB5: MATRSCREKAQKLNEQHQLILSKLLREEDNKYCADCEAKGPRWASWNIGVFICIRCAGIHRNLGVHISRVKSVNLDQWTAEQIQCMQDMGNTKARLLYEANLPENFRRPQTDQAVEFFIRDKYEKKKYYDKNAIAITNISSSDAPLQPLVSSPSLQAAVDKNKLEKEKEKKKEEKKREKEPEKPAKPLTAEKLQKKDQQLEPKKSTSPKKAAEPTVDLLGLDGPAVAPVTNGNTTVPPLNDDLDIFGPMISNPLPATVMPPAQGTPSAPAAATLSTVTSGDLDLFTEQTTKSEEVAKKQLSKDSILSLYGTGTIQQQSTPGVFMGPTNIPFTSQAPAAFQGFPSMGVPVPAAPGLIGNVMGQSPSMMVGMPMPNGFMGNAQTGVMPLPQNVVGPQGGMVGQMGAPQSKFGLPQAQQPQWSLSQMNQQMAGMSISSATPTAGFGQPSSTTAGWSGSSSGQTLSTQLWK
UniProt P19634, whole entry, looked up: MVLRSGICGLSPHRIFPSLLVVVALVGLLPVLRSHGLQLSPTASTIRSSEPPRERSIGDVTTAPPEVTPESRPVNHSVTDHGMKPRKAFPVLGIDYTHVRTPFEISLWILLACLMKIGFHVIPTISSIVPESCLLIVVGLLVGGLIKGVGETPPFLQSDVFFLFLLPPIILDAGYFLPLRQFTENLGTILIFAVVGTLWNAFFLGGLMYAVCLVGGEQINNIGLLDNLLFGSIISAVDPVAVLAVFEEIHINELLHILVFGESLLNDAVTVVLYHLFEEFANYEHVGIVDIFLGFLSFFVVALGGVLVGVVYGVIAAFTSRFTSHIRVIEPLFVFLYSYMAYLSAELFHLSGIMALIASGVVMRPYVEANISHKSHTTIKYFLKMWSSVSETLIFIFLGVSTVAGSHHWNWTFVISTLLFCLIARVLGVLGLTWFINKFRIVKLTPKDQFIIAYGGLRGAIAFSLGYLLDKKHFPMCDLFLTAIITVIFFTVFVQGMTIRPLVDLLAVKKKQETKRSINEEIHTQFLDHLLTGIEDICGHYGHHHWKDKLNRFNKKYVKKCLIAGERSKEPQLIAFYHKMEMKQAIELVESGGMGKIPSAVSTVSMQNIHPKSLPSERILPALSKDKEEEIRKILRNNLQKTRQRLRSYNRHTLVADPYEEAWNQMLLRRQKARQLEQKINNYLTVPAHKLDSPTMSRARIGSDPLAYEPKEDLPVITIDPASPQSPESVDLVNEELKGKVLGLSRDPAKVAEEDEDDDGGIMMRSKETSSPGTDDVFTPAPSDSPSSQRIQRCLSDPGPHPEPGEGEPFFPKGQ
UniProt Q96EX1: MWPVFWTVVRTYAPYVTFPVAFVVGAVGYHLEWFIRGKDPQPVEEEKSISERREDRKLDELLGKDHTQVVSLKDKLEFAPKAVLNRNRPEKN
UniProt P00441, whole entry, looked up: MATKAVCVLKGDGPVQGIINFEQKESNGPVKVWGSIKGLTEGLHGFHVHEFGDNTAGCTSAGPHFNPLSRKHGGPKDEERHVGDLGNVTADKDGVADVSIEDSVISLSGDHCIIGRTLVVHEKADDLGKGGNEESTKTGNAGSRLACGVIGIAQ
UniProt Q92540: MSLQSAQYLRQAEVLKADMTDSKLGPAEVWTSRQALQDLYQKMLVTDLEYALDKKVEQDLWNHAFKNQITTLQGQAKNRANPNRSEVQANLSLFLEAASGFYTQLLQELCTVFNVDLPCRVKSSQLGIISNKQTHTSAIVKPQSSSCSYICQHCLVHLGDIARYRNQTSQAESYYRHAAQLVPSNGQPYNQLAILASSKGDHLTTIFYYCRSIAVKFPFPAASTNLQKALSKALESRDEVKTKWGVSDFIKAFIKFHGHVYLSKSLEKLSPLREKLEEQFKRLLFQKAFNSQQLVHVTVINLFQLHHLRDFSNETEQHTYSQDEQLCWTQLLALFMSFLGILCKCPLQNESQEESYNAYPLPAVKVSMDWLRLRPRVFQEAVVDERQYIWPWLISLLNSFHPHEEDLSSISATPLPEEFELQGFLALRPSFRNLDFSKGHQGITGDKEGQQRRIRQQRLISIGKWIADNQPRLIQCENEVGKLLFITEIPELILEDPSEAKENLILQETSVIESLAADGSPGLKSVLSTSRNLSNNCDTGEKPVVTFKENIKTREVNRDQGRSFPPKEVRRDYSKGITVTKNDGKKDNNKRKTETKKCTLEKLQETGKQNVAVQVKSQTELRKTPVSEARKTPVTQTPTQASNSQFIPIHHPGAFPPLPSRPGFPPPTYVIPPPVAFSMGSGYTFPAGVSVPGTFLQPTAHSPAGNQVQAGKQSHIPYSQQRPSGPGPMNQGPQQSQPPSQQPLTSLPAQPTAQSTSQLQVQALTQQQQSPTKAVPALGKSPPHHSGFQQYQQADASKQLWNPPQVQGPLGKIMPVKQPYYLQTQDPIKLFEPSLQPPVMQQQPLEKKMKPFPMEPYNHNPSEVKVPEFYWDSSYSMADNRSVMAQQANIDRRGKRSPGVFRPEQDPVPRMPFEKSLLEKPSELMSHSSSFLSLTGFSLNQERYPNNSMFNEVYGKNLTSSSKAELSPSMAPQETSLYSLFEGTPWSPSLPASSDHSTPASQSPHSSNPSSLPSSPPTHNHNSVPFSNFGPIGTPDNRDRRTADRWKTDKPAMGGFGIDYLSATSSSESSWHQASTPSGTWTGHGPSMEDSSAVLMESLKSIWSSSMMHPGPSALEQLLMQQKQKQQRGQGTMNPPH
UniProt Q8TAQ2, whole entry, looked up: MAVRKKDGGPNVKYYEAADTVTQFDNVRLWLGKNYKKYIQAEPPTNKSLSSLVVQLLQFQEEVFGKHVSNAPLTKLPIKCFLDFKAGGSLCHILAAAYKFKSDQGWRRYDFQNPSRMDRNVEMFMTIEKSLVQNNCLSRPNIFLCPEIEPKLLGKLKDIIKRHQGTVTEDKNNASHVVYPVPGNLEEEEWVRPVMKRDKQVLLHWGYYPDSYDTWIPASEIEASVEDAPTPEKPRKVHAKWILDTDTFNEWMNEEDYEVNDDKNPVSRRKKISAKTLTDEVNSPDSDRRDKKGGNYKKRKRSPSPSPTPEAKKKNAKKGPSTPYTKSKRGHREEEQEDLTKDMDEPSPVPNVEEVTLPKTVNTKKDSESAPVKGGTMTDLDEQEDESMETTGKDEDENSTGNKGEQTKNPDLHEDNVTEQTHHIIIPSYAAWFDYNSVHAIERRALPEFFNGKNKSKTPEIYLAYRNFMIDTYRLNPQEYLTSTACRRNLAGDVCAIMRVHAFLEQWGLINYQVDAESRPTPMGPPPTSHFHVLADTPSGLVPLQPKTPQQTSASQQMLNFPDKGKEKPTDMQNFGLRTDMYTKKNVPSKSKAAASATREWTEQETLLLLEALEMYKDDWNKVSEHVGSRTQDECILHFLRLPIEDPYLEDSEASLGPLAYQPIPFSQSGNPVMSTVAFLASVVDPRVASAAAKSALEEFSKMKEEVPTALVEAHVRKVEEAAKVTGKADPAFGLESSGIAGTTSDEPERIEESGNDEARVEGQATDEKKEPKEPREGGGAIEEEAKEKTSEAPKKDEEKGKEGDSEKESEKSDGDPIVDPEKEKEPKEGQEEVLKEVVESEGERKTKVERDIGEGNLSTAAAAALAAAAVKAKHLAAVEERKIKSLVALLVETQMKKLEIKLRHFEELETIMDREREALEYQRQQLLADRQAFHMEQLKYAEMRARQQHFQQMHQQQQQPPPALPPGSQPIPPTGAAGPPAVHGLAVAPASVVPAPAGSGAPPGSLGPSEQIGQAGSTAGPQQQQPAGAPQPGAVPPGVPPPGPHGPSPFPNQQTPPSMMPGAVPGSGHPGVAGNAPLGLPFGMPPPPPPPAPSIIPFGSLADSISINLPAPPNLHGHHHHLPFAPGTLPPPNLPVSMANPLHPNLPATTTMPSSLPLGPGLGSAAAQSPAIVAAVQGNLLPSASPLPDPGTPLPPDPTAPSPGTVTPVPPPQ
UniProt O14508, whole entry, looked up: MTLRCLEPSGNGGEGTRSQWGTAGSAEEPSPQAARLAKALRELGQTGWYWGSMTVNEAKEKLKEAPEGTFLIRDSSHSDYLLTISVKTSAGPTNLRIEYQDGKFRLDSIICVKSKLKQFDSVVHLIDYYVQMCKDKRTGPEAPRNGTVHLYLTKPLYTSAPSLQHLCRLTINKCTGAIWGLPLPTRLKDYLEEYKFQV

This is one part of the list.

Compound in one assay: CC[C@@H]1C(=O)N(C)c2cnc(Nc3ccc(C(=O)N[C@H]4CC[C@H](N5CCN(CC6CC6)CC5)CC4)cc3OC)nc2N1C(C)C [volasertib]
As to the kind of experiment: log2 fold change, soluble protein after heating vs DMSO (PISA); higher = thermal stabilisation; K562 cells, 10 uM, 30 min; active = over 0.2 and 3.5 SD of the protein, either way, in both replicates (recomputed). The method, boiled down: (§1)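 Thermal stability values are relative to control samples and come from duplicates. They are expressed as log2 fold changes. For measurement, K562 cells (2×10^6 cells/mL) received 10 μM compound for 30 min, and aliquots were heated for 3 min over 48°C-58°C, pooled, and extracted at 4°C in PBS with 0.5% NP-40. Soluble protein, the supernatant after 21,000xg for 90 min, was quantified by TMTpro 16plex LC-MS/MS with equalised channel sums.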
For SNX16 (UniProt P57768), the log2 fold change was inactive: -0.13.
In the case of SNRPG (UniProt P62308), the log2 fold change is inactive: 0.118.
The same measure, in the same setting: the figure for SMN1 (UniProt Q16637) is inactive: -0.37; for SNRPD2 (UniProt P62316) it is inactive: 0.157; for SNF8 (UniProt Q96H20) it is inactive: -0.029.
The same measure, in the same setting: the result for SNRPA1 (UniProt P09661) reads inactive: 0.187; that for SNX8 (UniProt Q9Y5X2), inactive: -0.013.
Still for that read-out and setting: the result for SNU13, A0A3B3IUA2 reads inactive: 0.038; that for SOD2 (UniProt P04179), inactive: 0.126.

Compound in a further assay: CC[C@H](C)N1C=C(C2=C(C=C(C=C21)C3=CN=C(C=C3)N4CCNCC4)C(=O)NCC5=C(C=C(NC5=O)C)C)C
The description is as above. The method, boiled down: as §1
With SLMAP (UniProt Q14BN4), the log2 fold change was inactive: -0.003.
With SNAP23 (UniProt O00161), the log2 fold change is inactive: -0.031.
Same read-out and setting: the result for SNAP29 (UniProt O95721) reads inactive: -0.028; that for SMYD5 (UniProt Q6GMV2), inactive: 0.059.
Still for that read-out and setting: the figure for SMAP1 isoform 2 (UniProt Q8IYB5) is inactive: 0.02; for SNRNP200 (UniProt O75643) it is inactive: -0.018; for SMPD2 (UniProt O60906) it is inactive: 0.105.
For SPAG5 (UniProt Q96R06), the log2 fold change was inactive: 0.105.
Still for that read-out and setting: the figure for SLC9A3R2 (UniProt Q15599) is inactive: -0.022; for SLC9A1 (UniProt P19634) it is inactive: 0.001; for SNCA (UniProt P37840) it is inactive: -0.034.
The same measure, in the same setting: the result for SMIM12 (UniProt Q96EX1) reads inactive: 0.032; that for SNRPC (UniProt Q5TAL2), inactive: -0.149; that for SOD1 (UniProt P00441), inactive: 0.009.
Same read-out and setting: the figure for SLC9A3R1 (UniProt O14745) is inactive: -0.033.
On to SMG7 isoform 4 (UniProt Q92540), for which the log2 fold change was inactive: 0.138.
On the same count and under the same terms, the result for SMU1 (UniProt Q2TAY7) reads inactive: 0.008.
Still for that read-out and setting: the result for SMC1A (UniProt Q14683) reads inactive: 0.011; that for SNX17 (UniProt Q15036), inactive: -0.172; that for SMARCC2 (UniProt Q8TAQ2), inactive: 0.147.
On to SOCS2 (UniProt O14508), for which the log2 fold change was inactive: -0.048.
Turning to SORD (UniProt Q00796), the log2 fold change was inactive: -0.03.
For the target SMC1B isoform 3 (UniProt Q8NDV3), the log2 fold change was inactive: -0.069.
On the same count and under the same terms, the result for SNX16 (UniProt P57768) reads inactive: 0.003; that for SNRPG (UniProt P62308), inactive: -0.111; that for SMN1 (UniProt Q16637), inactive: 0.078.
Still for that read-out and setting: the result for SNRPD2 (UniProt P62316) reads inactive: -0.063; that for SNF8 (UniProt Q96H20), inactive: -0.02; that for SNRPA1 (UniProt P09661), inactive: -0.052.
On the same count and under the same terms, the figure for SNX8 (UniProt Q9Y5X2) is inactive: -0.007; for SNU13, A0A3B3IUA2 it is inactive: -0.168; for SOD2 (UniProt P04179) it is inactive: -0.001.

Compound in a further assay: CC[C@H](C)[C@@H](C(=O)N[C@@H]([C@@H](C)O)C(=O)N[C@@H](CC(C)C)C(=O)[C@]1(CO1)C)NC(=O)[C@H]([C@@H](C)CC)N(C)C(=O)C [epoxomicin]
Described as above. In outline:
as §1
As to SLMAP (UniProt Q14BN4), the log2 fold change is inactive: -0.002.
On the same count and under the same terms, the result for SNAP23 (UniProt O00161) reads inactive: 0.005; that for SNAP29 (UniProt O95721), inactive: 0.
As for SMYD5 (UniProt Q6GMV2), the log2 fold change is inactive: 0.088.
In the case of SMAP1 isoform 2 (UniProt Q8IYB5), the log2 fold change is inactive: 0.088.
Still for that read-out and setting: the figure for SNRNP200 (UniProt O75643) is inactive: -0.027.
Same read-out and setting: the figure for SMPD2 (UniProt O60906) is inactive: -0.052; for SPAG5 (UniProt Q96R06) it is inactive: -0.126.
On the same count and under the same terms, the result for SLC9A3R2 (UniProt Q15599) reads inactive: -0.001; that for SLC9A1 (UniProt P19634), inactive: -0.016; that for SNCA (UniProt P37840), inactive: -0.025.
Take SMIM12 (UniProt Q96EX1): the log2 fold change was inactive: -0.008.
On the same count and under the same terms, the result for SNRPC (UniProt Q5TAL2) reads inactive: 0.199; that for SOD1 (UniProt P00441), inactive: -0.001.
Still for that read-out and setting: the result for SLC9A3R1 (UniProt O14745) reads inactive: 0.019.
Same read-out and setting: the result for SMG7 isoform 4 (UniProt Q92540) reads inactive: -0.054; that for SMU1 (UniProt Q2TAY7), inactive: 0.006.
In the case of SMC1A (UniProt Q14683), the log2 fold change was inactive: 0.027.
On the same count and under the same terms, the figure for SNX17 (UniProt Q15036) is inactive: -0.007; for SMARCC2 (UniProt Q8TAQ2) it is inactive: 0.001.
Same read-out and setting: the figure for SOCS2 (UniProt O14508) is inactive: 0.097; for SORD (UniProt Q00796) it is inactive: 0.017; for SMC1B isoform 3 (UniProt Q8NDV3) it is inactive: -0.101.
Still for that read-out and setting: the figure for SNX16 (UniProt P57768) is inactive: 0.04; for SNRPG (UniProt P62308) it is inactive: -0.112; for SMN1 (UniProt Q16637) it is inactive: 0.026.
For the target SNRPD2 (UniProt P62316), the log2 fold change was inactive: -0.075.
The same measure, in the same setting: the result for SNF8 (UniProt Q96H20) reads inactive: 0.004; that for SNRPA1 (UniProt P09661), inactive: -0.049.
Same read-out and setting: the result for SNX8 (UniProt Q9Y5X2) reads inactive: -0.077; that for SNU13, A0A3B3IUA2, inactive: -0.045.
Same read-out and setting: the figure for SOD2 (UniProt P04179) is inactive: -0.075.
